We go through 1 substance from PMC9892057.

The chains behind the UniProt entries cited, without tags or fusion partners.
UniProt P40337: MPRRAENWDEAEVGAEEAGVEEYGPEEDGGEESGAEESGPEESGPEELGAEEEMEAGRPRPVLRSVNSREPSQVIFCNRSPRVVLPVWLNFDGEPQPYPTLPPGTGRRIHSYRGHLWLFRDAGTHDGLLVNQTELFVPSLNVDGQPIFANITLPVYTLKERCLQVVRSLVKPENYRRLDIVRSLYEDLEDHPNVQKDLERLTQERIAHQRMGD
UniProt Q00987: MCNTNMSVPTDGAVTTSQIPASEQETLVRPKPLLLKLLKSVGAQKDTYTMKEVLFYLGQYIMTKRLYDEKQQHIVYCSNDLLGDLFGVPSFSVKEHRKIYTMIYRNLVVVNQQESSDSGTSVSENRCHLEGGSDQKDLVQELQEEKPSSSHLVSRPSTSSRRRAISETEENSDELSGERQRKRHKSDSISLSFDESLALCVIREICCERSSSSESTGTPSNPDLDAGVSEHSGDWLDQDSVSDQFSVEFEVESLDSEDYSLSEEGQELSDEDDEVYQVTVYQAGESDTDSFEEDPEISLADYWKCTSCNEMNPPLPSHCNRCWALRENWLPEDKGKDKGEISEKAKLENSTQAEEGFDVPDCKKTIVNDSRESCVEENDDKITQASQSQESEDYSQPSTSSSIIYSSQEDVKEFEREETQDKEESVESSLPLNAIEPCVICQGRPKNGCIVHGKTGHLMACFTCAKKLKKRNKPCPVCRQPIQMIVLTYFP

No constants are given. Whether binding was seen depends on the method and setting. Binding seen in cells or lysates may run through a third protein. Some binding calls cover weakened binding; strength is not graded here.

The test concerns the target von Hippel-Lindau protein (pVHL) (human (endogenous in Y79)) (UniProt P40337). Put plainly: co-IP; Y79 cells transfected with Flag-MDM2 plasmid or empty vector for 24 h, lysed in IP Lysis Buffer with protease inhibitors; pre-cleared with Dynabeads Protein G; endogenous pVHL precipitated with anti-pVHL antibody or control IgG on Dynabeads, 1 h at room temperature; washed 3 times with PBST; MDM2 detected by western blot. In general terms: Immunoblotting shows a protein as a band on a membrane.

Regarding “Flag-tagged human MDM2 (Mouse double minute 2 homolog) (from UniProt Q00987 1-491)”, the binding result is “binds”.
